Measurements: article PMC6407599 (Journal of Enzyme Inhibition and Medicinal Chemistry, 2019)
Strings that start with PEPTIDE1 are HELM notation: dots part the residues, brackets hold end groups and non-standard residues.

Test: general procedure: Fmoc solid-phase peptide synthesis; 2-chlorotrityl chloride resin; DIC/HOBt (HOAt for hindered couplings); HATU, TBTU, DMTMM with DIPEA for macrocy
Conditions: whole synthesis, overall

Row | Substance | isolated yield
1 | PEPTIDE1{[Lys(Cbz)].N.[Ser(Ac)].[Tyr(Ac)].A}$PEPTIDE1,PEPTIDE1,1:R1-5:R2$$$V2.0 | 28% overall
2 | PEPTIDE1{[Lys(Cbz)].N.[Ser(Ac)].[Tyr(Ac)].F}$PEPTIDE1,PEPTIDE1,1:R1-5:R2$$$V2.0 | 24% overall
